This passage reports AC50 results from PubChem BioAssay AID493014 (National Center for Advancing Translational Sciences (NCATS), 2011).

The other results are listed elsewhere or left out. These are further read-outs of the screen, such as a control signal, another cell line or another target. No call is given for them. The list favours compounds with an active or inconclusive main result. Words in brackets tell the shape of the fitted curve; partial curves, single points and poor fits give uncertain potencies.

The nature of the assay: qHTS Assay to Find Inhibitors of Chronic Active B-Cell Receptor Signaling. The note with it: ABC-DLBCL IkBa-CBG/CBR reporter, luminescence ratio (green luciferase fused to IkBa over red control in TMD8 lymphoma cells), 4 h. A digest of the protocol:
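Cell line TMD8 (human ABC DLBCL), stably expressing tet-inducible CBG68-IkBa fusion and CBR; IMDM/0.5% FBS; cpd up to 46 uM; dox induction, 4 h, 37C/5% CO2; dual luminescence; green/red ratio; MG132 control.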
A general note: qHTS replaces the single test concentration by a dilution series.

The mark [1] stands for this setting: measured here: CBR red luminescence, cell number.
The mark [2] stands for this setting: measured here: IkBa-CBG green luminescence.

As a reminder, the AC50 is the concentration giving half of the maximal activity seen. Consider `CC1CCN(C(=O)CC2C(=O)Nc3c2c(=O)n(C)c(=O)n3Cc2ccccc2)CC1` (stereo unspecified), for which the AC50 under setting [1] was 0.562 µM [falling, partial curve, poor fit]. Take `CCN(CC(=O)Nc1ccc(NC(C)=O)cc1)CC(=O)Nc1cc(C)on1`: the AC50 under setting [1] is 10.3 µM [rising, partial curve, poor fit]. Still for that read-out and setting: under `Cc1cc(C)c(C#N)c(SC(C(=O)NC(C)(C)C)c2ccccc2)n1` (stereo unspecified) stands 10 µM [rising, partial curve, poor fit]; under `Nc1cccc(-c2csc(-n3ncc(C(=O)O)c3C(F)(F)F)n2)c1`, 2 µM [falling, full curve, poor fit]. On the same count and under the same terms, in the case of `COc1ccc(NCc2nnc(SCC(=O)Nc3ccccc3OC)o2)cc1` it was 29.1 µM [falling, single point]; in that of `CC(=O)C1=C(C)Nc2ncnn2C1c1ccccc1F` (stereo unspecified), 1.26 µM [rising, full curve, poor fit]; in that of `Cc1ccc(-n2c(C)c(C)c3c(NCCO)ncnc32)cc1`, 35.5 µM [rising, single point]. On the same count and under the same terms, in the case of `Cc1ccccc1S(=O)(=O)Cc1ccc(C(=O)N2CCN(c3ccccc3F)CC2)o1` it was 0.631 µM [falling, full curve, poor fit]; in that of `COc1ccccc1NC(=S)NNC(=O)c1ccncc1`, 31.6 µM [falling, single point]; in that of `CC[C@H]1OC(=O)[C@H](C)[C@@H](O[C@H]2C[C@@](C)(OC)[C@@H](O)[C@H](C)O2)[C@H](C)[C@@H](O[C@@H]2O[C@H](C)C[C@H](N(C)C)[C@H]2O)[C@](C)(O)C[C@@H](C)[C@@H]2N[C@@H](COCCOC)O[C@H]([C@H]2C)[C@]1(C)O`, 29.1 µM [falling, partial curve, poor fit]. Take `O=C1c2ccc3c4c(ccc(c24)C(=O)N1CCCCO)C(=O)N(CCCCO)C3=O`: the AC50 was 8.91 µM [falling, partial curve, poor fit] under setting [1] and 6.31 µM [rising, partial curve, poor fit] under setting [2].

For `O=C(Cc1c(F)cccc1Cl)Nc1nc2ccccc2s1`, under setting [1], the AC50 was 15.8 µM [falling, single point]. Same read-out and setting: under `COc1cccc(N2CCN(C(=O)CC(NC(=O)c3ccccc3)c3ccccc3)CC2)c1` (stereo unspecified) stands 23.1 µM [rising, single point]; under `Cc1ccc(NC(=O)c2snc3c(=O)[nH]cnc23)cc1C`, 2.06 µM [rising, partial curve, poor fit].

`COc1cc(OC)c2c(-c3ccccc3)cc(=O)oc2c1C(CCN1CCOCC1)c1ccc2c(c1)OCO2` (stereo unspecified): the AC50 was 29.1 µM [falling, single point] under setting [1] and 10.3 µM [falling, partial curve, poor fit] under setting [2]. With `CSC1=NCCN1C(=O)c1c(F)cccc1F`, the AC50 under setting [1] is 29.1 µM [rising, single point]. `CC(C)COC(=O)c1ccc(NC(=O)C2C3CCC(C3)C2C(=O)O)cc1` (stereo unspecified): the AC50 under setting [1] was 2 µM [rising, full curve, poor fit]. On the same count and under the same terms, in the case of `O=c1c(-c2nc3ccccc3o2)c2oc3ccccc3n2c2ccccc12` it was 29.1 µM [rising, single point]. Consider `COc1ccc(CCNc2cc(C)nc3c(-c4ccccc4)cnn23)cc1OC`, for which the AC50 is 32.6 µM [falling, single point] under setting [1] and 20.6 µM [rising, partial curve, poor fit] under setting [2]. As for `N#Cc1ccccc1NC(=O)CSC1=Nc2ccccc2C2CC=NN12` (stereo unspecified), the AC50 under setting [2] is 22.4 µM [falling, single point]. In the case of `CCOc1ccc(NC(=O)CN(C)C(=O)c2ccc(OCc3ccccc3)c(OC)c2)cc1OCC`, the AC50 under setting [1] was 5.8 µM [falling, full curve, poor fit]. For `CC(C)c1ccc(NC(=O)/C(C#N)=C/c2ccncc2)cc1`, the AC50 under setting [1] is 2.82 µM [rising, full curve, poor fit]. On the same count and under the same terms, under `Cc1ccc(NC(=O)C(=O)NCc2ccncc2)cc1` stands 11.2 µM [falling, partial curve, poor fit]. The same measure, in the same setting: in the case of `CCc1cc(Cn2nc(-c3ccccc3)cc2C(=O)NCC2CC2)on1` it was 18.4 µM [rising, partial curve]. Same read-out and setting: in the case of `Fc1ccc(C2CC(c3ccco3)=Nc3ccccc3S2)cc1` (stereo unspecified) it was 12.6 µM [falling, single point]; in that of `C=CCn1c(SCc2ccccc2)nnc1-c1cccnc1`, 0.82 µM [rising, full curve]; in that of `CC(=O)Nc1ccc(C(=O)OCCc2ccccc2)cc1`, 0.562 µM [rising, full curve, poor fit]. As for `C/C=C/c1ccc(OCCOc2cccc3cccnc23)c(OC)c1`, under setting [1], the AC50 is 5.17 µM [rising, partial curve].

As to `O=C(NCCc1ccccc1)C1CCN(S(=O)(=O)N2CCCC2)CC1`, the AC50 under setting [1] was 16.4 µM [rising, single point].

For `CN(C)c1ccc(CNn2cnnc2SCc2ccc(F)cc2)cc1`, under setting [1], the AC50 was 0.82 µM [falling, partial curve, poor fit]. In the case of `Cc1ccc2nc(NC(=O)C3CC3C)sc2c1` (stereo unspecified), the AC50 under setting [1] is 11.2 µM [falling, partial curve]. Still for that read-out and setting: in the case of `NC(=S)N/N=C1\CC(c2ccc3c(c2)OCCO3)Oc2ccc(F)cc21` (stereo unspecified) it was 12.6 µM [falling, single point].

For `CCOC(=O)C1=CN(Cc2cccc(-c3cccnc3)c2)S(=O)(=O)N(CC)C1C` (stereo unspecified), the AC50 under setting [1] is 2.59 µM [rising, partial curve, poor fit]. The same measure, in the same setting: under `N=c1oc2ccccc2cc1C(=O)Nc1ccccc1` stands 0.501 µM [falling, partial curve, poor fit]; under `COc1ccccc1NC(=O)CSc1nc2sc(C)c(C)c2c(=O)n1Cc1ccco1`, 11.2 µM [falling, partial curve, poor fit]; under `COc1ccc(Cn2c(CCC(=O)Nc3ccccc3OC)nc3cccnc32)cc1`, 35.5 µM [falling, partial curve, poor fit]. Still for that read-out and setting: under `O=C(/C=C/c1ccco1)Oc1cc(Br)cc(/C=N/NC(=O)c2ccccc2O)c1` stands 5.8 µM [falling, partial curve]; under `Nc1nc(-c2ccc3c(c2)CCCC3)cs1`, 3.16 µM [rising, partial curve, poor fit].
